# Experimental data taken from PubChem BioAssay AID1347076 (National Center for Advancing Translational Sciences (NCATS), 2019).
# Among all 400,000 compounds or so, about 13,000 (3.2%) were called active. The inconclusive results got no clear call from the source; some entries with a clear call stand among them for comparison. The call rests on the fitted dose curve; in most records, active means well fitted cell-killing curve with a large enough effect; inconclusive means small, poorly fitted or top-dose-only effect, or effect the other way; inactive means flat fitted curve, though single readings scatter. Where the call is inconclusive, the potency comes from a doubtful curve fit.
# Experiment: qHTS assay for MDR1-selective chemotherapeutics: Primary screen using the drug-selected MDR subline cells KB-V1; further: nearly all actives have a fitted effect of over 60% in size
# Conditions: KB-V1 MDR cells viability, CellTiter-Glo, 72 h; series mostly up to 46.1 µM
# In short: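 KB-V1 MDR subline cells in DMEM (phenol-red free, 10% FBS) exposed to compounds in qHTS concentration series for 72 h at 37 degrees C. Viability read by CellTiter-Glo luminescence; concentration-effect curves fitted after normalization and correction.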
# Potency means the concentration at half of the fitted maximal effect.
row,SMILES,Potency
1,Cc1cc(C(=O)COC(=O)c2ccc(O)cc2O)c(C)n1-c1ccccc1,active: 16.4 µM
2,CCc1nc2nc(C)cc(C)n2c1Nc1ccc(OC)cc1,"inconclusive: 14.6 µM [cytotoxic, partial curve]"
3,Cc1cc(Cl)ccc1Nc1ncnc2onc(C)c12,"inconclusive: 29.1 µM [cytotoxic, single point]"
4,O=C1NC[C@H](Cc2ccccc2)N(C[C@H]2CCCN2C[C@H](Cc2ccccc2)N2C[C@H](Cc3ccc(O)cc3)N(CCc3ccccc3)C(=O)C2=O)C1=O,inactive
5,COC(=O)c1ccc2c(c1)N(CC(=O)Nc1cccc(C(F)(F)F)c1)C(=O)c1ccccc1S2,inactive
6,O=Nc1c(O)n(Cc2cccc(C(F)(F)F)c2)c2ccccc12,"inconclusive: 23.1 µM [cytotoxic, single point]"
7,CCOc1ccc(C(C(=O)NCC2CCCO2)N(CCc2cccc(C)c2)C(=O)c2snc(C(N)=O)c2N)cc1 (stereo not given),active: 20.6 µM
8,O=C(NCc1ccccc1Cl)c1ccc2c(c1)SC1=NS(=O)(=O)CCN12,inactive
9,O=C(Cn1c(=O)n(-c2ccccc2)c(=O)c2oc3ccccc3c21)Nc1ccccc1,active: 14.6 µM
10,CC1=C(C(=O)OC(C)C)C(c2ccc(C)o2)C(C(=O)OC(C)C)=C(C)N1,inactive
11,COc1ccc(Cl)cc1NC(=O)CCn1cnc2ccccc2c1=O,"inconclusive: 16.4 µM [cytotoxic, single point]"
12,CCc1cccc2c(C(=O)CN3C(=O)NC4(CCCCC4)C3=O)c[nH]c12,"inconclusive: 16.4 µM [cytotoxic, single point]"
13,CC1=CSC2=NC(=O)/C(=C\c3cccn3-c3ccc([N+](=O)[O-])cc3)C(=N)N12,active: 2.91 µM
14,CCc1ccc(C(=O)Nc2cc(C)on2)o1,"inconclusive: 20.6 µM [rising, single point]"
15,Cc1cc2c(cc1C)CSC(c1ccc3ccccc3c1O)SC2,inactive
16,CCOc1ccc(S(=O)(=O)N2CC(=O)Nc3ccccc32)cc1,"inconclusive: 29.1 µM [cytotoxic, single point]"
17,Cc1ccccc1-n1c(=O)c2c3c(sc2n2cnnc12)CCCC3,inactive
18,COc1cccc(NC(=O)CN(C)C(=O)/C=C/c2cc(OC)ccc2OC)c1,active: 10.3 µM
19,O=[N+]([O-])c1ccc(CN2[C@H](COCc3ccccc3)[C@@H](N3CCCC3)CS2(=O)=O)cc1,inactive
20,COC(=O)c1ccc(Nc2ccc3nonc3c2[N+](=O)[O-])cc1,"inconclusive: 23.1 µM [rising, single point]"
21,CCOC(=O)c1c(C)n(C)c2ccc(OCC(O)CN(CC)CC)cc12 (stereo not given),"inconclusive: 25.9 µM [rising, partial curve, poor fit]"
22,COc1ccc(C(=O)c2oc3ccccc3c2NC(C)=O)cc1,"inconclusive: 3.66 µM [cytotoxic, full curve, poor fit]"
23,Cc1nc(-c2cccc(S(=O)(=O)N3CCC(C)CC3)c2)cs1,inactive

# Two of these compounds, set out differently.
row	SMILES	Potency
14	CCc1ccc(C(=O)Nc2cc(C)on2)o1	inconclusive: 20.6 µM [rising, single point]
15	Cc1cc2c(cc1C)CSC(c1ccc3ccccc3c1O)SC2	inactive

# Further entries.

row,SMILES,Potency
1,Cc1nn(Cc2ccccc2)c(C)c1C(=O)NCC(c1cccs1)N1CCOCC1 (stereo not given),"inconclusive: 18.4 µM [cytotoxic, partial curve]"
2,O=C(Oc1ccc2ccc(=O)oc2c1)C1CCCCC1,"inconclusive: 25.9 µM [rising, single point]"
3,Cc1ccc(OCCn2c(NC(=O)c3ccco3)nc3ccccc32)cc1,"inconclusive: 4.11 µM [cytotoxic, full curve]"
4,Cc1ccnc2nc(C(=O)N3CCN(c4ccc(F)cc4)CC3)nn12,inactive
5,O=C(NCc1ccccc1)c1cc(C2CCCN(C(=O)C3CCCCC3)C2)on1 (stereo not given),inactive
6,COc1ccc(N2CCN(C(=O)CN(C)S(=O)(=O)c3cccs3)CC2)cc1,"inconclusive: 5.17 µM [cytotoxic, partial curve, poor fit]"
7,COc1ccc(NC(=O)COC(=O)c2cc(C)oc2C)cc1OC,"inconclusive: 29.1 µM [rising, single point]"
8,COc1ccc(C2(C(=O)NC3CCCCC3)CCOCC2)cc1OC,inactive
9,C[C@H](NC(=O)c1ccco1)C(=O)Nc1cccc([N+](=O)[O-])c1,"inconclusive: 32.6 µM [cytotoxic, partial curve, poor fit]"
10,COc1ccc(NC(=O)CSc2c3c(nc4ccccc24)CCC3)c(OC)c1,"inconclusive: 0.0073 µM [cytotoxic, full curve, poor fit]"
11,CCOCCCNC(=O)CN1C(=O)/C(=C/c2ccccc2)Sc2ccccc21,active: 14.6 µM
12,COc1ccc(CN=C2NN=C(c3cccc(OC)c3)CS2)cc1,inactive
13,COc1ccc2c(c1OC)C(=O)N1c3ccccc3N=C(c3ccc([N+](=O)[O-])cc3)CC21 (stereo not given),"inconclusive: 11.6 µM [cytotoxic, partial curve]"
14,O=C(CCCN1C(=O)/C(=C/c2ccccc2)SC1=S)Nc1ccc(C(=O)O)c(O)c1,"inconclusive: 0.82 µM [rising, full curve]"
15,Cc1ccc(S(=O)(=O)c2c(C)nn(C(C)(C)C)c2OC(=O)CC(C)C)cc1,inactive
16,CCCc1cc(=O)[nH]c(SCC(=O)c2cc(C)n(CC(F)(F)F)c2C)n1,active: 16.4 µM
17,CC(C)c1ccc(/C=N/NC(=O)CN(c2cccc(Cl)c2Cl)S(C)(=O)=O)cc1,"inconclusive: 18.4 µM [cytotoxic, single point]"
18,O=C1CSC(c2ccccc2)N1CC(O)c1ccc([N+](=O)[O-])cc1 (stereo not given),"inconclusive: 29.1 µM [cytotoxic, single point]"
19,CCCn1c(=N)n(CC(O)COc2ccc(C)cc2)c2ccccc21 (stereo not given),"inconclusive: 23.1 µM [cytotoxic, single point]"
20,COCCOC(=O)c1c(C)oc2cc(Br)c(OCC(N)=O)cc12,"inconclusive: 14.6 µM [cytotoxic, partial curve]"
21,S=C1NCN(Cc2ccccc2)CN1C1CCCCC1,"inconclusive: 29.1 µM [cytotoxic, single point]"
22,CCCCC(O)(c1ccc(OC)cc1)C(CN1CCOCC1)c1ccccc1 (stereo not given),"inconclusive: 25.9 µM [cytotoxic, single point]"
